In the supplement of paper PMC6078165:
The reference is the same well before dosing, and untreated signal decays as well.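 Labels refer to human fibroblasts, largely primary: uterine (C12385, HUF), lung (H6013), bone (Hs27A), adrenal (HADF), skin (WS1), plus mammary HMF and breast cancer-associated Hs343T. Cancer lines are basal-like or mesenchymal-like triple-negative breast cancer. The paper counts as hits responses shifting over 3x the replicate standard deviation. The tissue of the other fibroblasts is not given here.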

Test system: MDAMB231
Test: relative JC-1 red fluorescence (viability) vs pre-drug, coculture with fibroblast (fraction); higher = more viable cancer cells
Method: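 JC-1 labelled TNBC cells cocultured 1:1 (1,500 cells each) with CellTrace Violet stained primary or stromal fibroblasts in 384-well plates in FluoroBrite medium, treated with one of 42 anticancer drugs at 0.1, 1, 10 or 100 uM. JC-1 red fluorescence (mitochondrial integrity in cancer cells only) was read by plate reader every 8 h for 72 h. Values are normalised to each well's pre-drug value. The stock of one drug was tenfold lower, so its dose labels may be too high.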

CC(C)C[C@H](NC(=O)[C@@H](COC(C)(C)C)NC(=O)[C@H](Cc1ccc(O)cc1)NC(=O)[C@H](CO)NC(=O)[C@H](Cc1c[nH]c2ccccc12)NC(=O)[C@H](Cc1cnc[nH]1)NC(=O)[C@@H]1CCC(=O)N1)C(=O)N[C@@H](CCCNC(=N)N)C(=O)N1CCC[C@H]1C(=O)NNC(N)=O [Goserelin]
relative JC-1 red fluorescence
Settings | 8 h | 16 h | 24 h | 32 h | 40 h | 48 h | 56 h | 64 h | 72 h
10 µM, coculture fibroblast: C12385 | 0.807 | 0.74 | 0.71 | 0.668 | 0.619 | 0.588 | 0.546 | 0.545 | 0.529
10 µM, coculture fibroblast: H6013 | 0.888 | 0.833 | 0.784 | 0.753 | 0.693 | 0.666 | 0.651 | 0.629 | 0.593
10 µM, coculture fibroblast: H6019 | 0.771 | 0.693 | 0.6495 | 0.602 | 0.547 | 0.521 | 0.4695 | 0.452 | 0.414
10 µM, coculture fibroblast: H6076 | 0.883 | 0.796 | 0.728 | 0.685 | 0.642 | 0.603 | 0.562 | 0.542 | 0.538
10 µM, coculture fibroblast: H6231 | 0.85 | 0.873 | 0.786 | 0.727 | 0.655 | 0.615 | 0.573 | 0.55 | 0.519
10 µM, coculture fibroblast: HADF | 0.912 | 0.8278 | 0.79008 | 0.754 | 0.699 | 0.657 | 0.635 | 0.609 | 0.563
10 µM, coculture fibroblast: HCFa | 0.8991 | 0.8326 | 0.798 | 0.763 | 0.707 | 0.662 | 0.645 | 0.616 | 0.58
10 µM, coculture fibroblast: HCPF | 0.889 | 0.786 | 0.722 | 0.691 | 0.636 | 0.5978 | 0.5586 | 0.5238 | 0.508
10 µM, coculture fibroblast: HHSteC | 0.89 | 0.847 | 0.798 | 0.7448 | 0.69 | 0.652 | 0.607 | 0.58 | 0.542
10 µM, coculture fibroblast: HMF | 0.883 | 0.792 | 0.739 | 0.694 | 0.649 | 0.618 | 0.573 | 0.552 | 0.524
10 µM, coculture fibroblast: HPFa | 0.952 | 0.891 | 0.842 | 0.7751 | 0.738 | 0.684 | 0.623 | 0.583 | 0.52
10 µM, coculture fibroblast: HUF | 0.861 | 0.724 | 0.747 | 0.622 | 0.561 | 0.545 | 0.497 | 0.488 | 0.464
10 µM, coculture fibroblast: Hs5 | 0.905 | 0.818 | 0.745 | 0.695 | 0.639 | 0.58 | 0.531 | 0.501 | 0.473
10 µM, coculture fibroblast: Hs27A | 0.903 | 0.8286 | 0.79 | 0.765 | 0.696 | 0.611 | 0.616 | 0.592 | 0.543
10 µM, coculture fibroblast: Hs343T | 0.886 | 0.787 | 0.764 | 0.853 | 0.75 | 0.787 | 0.811 | 0.792 | 0.769
10 µM, coculture fibroblast: WS1 | 0.774 | 0.715 | 0.641 | 0.599 | 0.545 | 0.517 | 0.46 | 0.436 | 0.409
100 µM, coculture fibroblast: C12385 | 0.7878 | 0.746 | 0.704 | 0.664 | 0.598 | 0.561 | 0.52 | 0.518 | 0.49
100 µM, coculture fibroblast: H6013 | 0.9012 | 0.8447 | 0.819 | 0.808 | 0.769 | 0.748 | 0.741 | 0.722 | 0.685
100 µM, coculture fibroblast: H6019 | 0.8 | 0.737 | 0.72 | 0.663 | 0.616 | 0.581 | 0.515 | 0.488 | 0.446
100 µM, coculture fibroblast: H6076 | 0.899 | 0.826 | 0.838 | 0.837 | 0.822 | 0.798 | 0.786 | 0.781 | 0.779
100 µM, coculture fibroblast: H6231 | 0.928 | 0.832 | 0.773 | 0.7291 | 0.676 | 0.645 | 0.6 | 0.585 | 0.559
100 µM, coculture fibroblast: HADF | 0.8994 | 0.854 | 0.827 | 0.782 | 0.734 | 0.69 | 0.671 | 0.648 | 0.596
100 µM, coculture fibroblast: HCFa | 0.89904 | 0.837 | 0.801 | 0.771 | 0.718 | 0.676 | 0.6476 | 0.6229 | 0.57
100 µM, coculture fibroblast: HCPF | 0.902 | 0.798 | 0.738 | 0.711 | 0.654 | 0.614 | 0.573 | 0.544 | 0.52
100 µM, coculture fibroblast: HHSteC | 0.937 | 0.8708 | 0.824 | 0.7797 | 0.728 | 0.705 | 0.662 | 0.639 | 0.586
100 µM, coculture fibroblast: HMF | 0.9 | 0.826 | 0.773 | 0.747 | 0.697 | 0.66 | 0.619 | 0.598 | 0.574
100 µM, coculture fibroblast: HPFa | 0.975 | 0.9143 | 0.8561 | 0.793 | 0.742 | 0.694 | 0.633 | 0.6 | 0.531
100 µM, coculture fibroblast: HUF | 0.87 | 0.801 | 0.822 | 0.713 | 0.657 | 0.637 | 0.58 | 0.561 | 0.533
100 µM, coculture fibroblast: Hs5 | 0.88 | 0.797 | 0.7462 | 0.697 | 0.657 | 0.604 | 0.566 | 0.541 | 0.511
100 µM, coculture fibroblast: Hs27A | 0.9174 | 0.874 | 0.823 | 0.793 | 0.737 | 0.67 | 0.666 | 0.646 | 0.5934
100 µM, coculture fibroblast: Hs343T | 0.939 | 0.84 | 0.785 | 0.762 | 0.7 | 0.657 | 0.594 | 0.578 | 0.545
100 µM, coculture fibroblast: WS1 | 0.7732 | 0.721 | 0.667 | 0.62072 | 0.575 | 0.5393 | 0.4948 | 0.48 | 0.4457
